# From PubChem BioAssay AID493014 (National Center for Advancing Translational Sciences (NCATS), 2011)
# In all, about 340,000 compounds went through this assay and about 170 (0.05%) were called active. Inconclusive means that the source gave no clear call. Such entries were picked first, then a sample of the others. Calls come from the whole dose curve; as a rule, active = well fitted inhibition curve with a large enough effect in the signal ratio, with a control signal flat (not every such curve was filed as active); inconclusive = small, poorly fitted or top-dose-only effect, or effect the other way, or a change in a side signal; inactive = flat fitted curve, though single readings scatter; the % refers to the signal ratio. Potencies of inconclusive entries are doubtful fits and often do not repeat.
# Test: qHTS Assay to Find Inhibitors of Chronic Active B-Cell Receptor Signaling;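 for activity change, negative = inhibition: plate controls were basal doxycycline-induced cells for no effect and cells given 10 µM MG132 for full effect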
# Settings: ABC-DLBCL IkBa-CBG/CBR reporter, luminescence ratio (green luciferase fused to IkBa over red control in TMD8 lymphoma cells), 4 h
# Outline: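 TMD8 human ABC-DLBCL cells with doxycycline-inducible IκBα–green luciferase fusion and unfused red luciferase, in 0.5% FBS medium; compounds up to 46 uM, 4 h at 37C. Green/red luminescence ratio, filter-overlap corrected, fitted to concentration-response curves.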
# [1] = activity change, negative = inhibition: at 46.1 µM (top of the series)
# Potency is the fitted concentration of half-maximal effect.
smiles,measurement,setting,value
CC(=O)Nc1ccc(NC(=O)COc2ccc(Cl)cc2Cl)cc1,"activity change, negative = inhibition",[1],inconclusive: -0.201%
O=C(Oc1ccc2ccccc2c1)C1CCC1,"activity change, negative = inhibition",[1],inactive
C/C(=N\NC(=O)c1c(Cl)c(C)nn1C)c1cccc(NC(=O)C2CCCC2)c1,Potency,[1],"inconclusive: 7.08 µM [falling, partial curve]"
O=C(Cn1nnc(-c2ccccc2Cl)n1)N1CCCCC1,"activity change, negative = inhibition",[1],inactive
N#Cc1c(-c2ccc(F)cc2)c2c([nH]c1=O)-c1ccccc1OC2,"activity change, negative = inhibition",[1],inactive
CCOC(=O)Cc1csc(SCc2nc3sc4c(c3c(=O)[nH]2)CCC4)n1,Potency,[1],"inconclusive: 5.8 µM [falling, full curve, poor fit]"
COc1ccc(CNC(=O)CSCc2ccc(C)cc2)c(OC)c1,"activity change, negative = inhibition",[1],inconclusive: -0.14%
COc1cc(C(Nc2ccccn2)c2c(NC(=O)c3ccco3)sc(C)c2C)cc(OC)c1OC (stereo unspecified),"activity change, negative = inhibition",[1],inactive
O=C(CSc1nncn1-c1ccccc1F)NC1CC1,"activity change, negative = inhibition",[1],inactive
O=C(NCC(c1ccc2c(c1)OCO2)N1CCOCC1)C(=O)Nc1ccc(Cl)cc1 (stereo unspecified),Potency,[1],"inconclusive: 2.82 µM [falling, full curve]"
O=C(CSc1nnc(COc2ccccc2)n1-c1ccccc1)c1cccs1,"activity change, negative = inhibition",[1],inactive
CC(=O)CC(c1ccccc1)c1c(O)c2ccccc2oc1=O (stereo unspecified),"activity change, negative = inhibition",[1],inconclusive: 0.991%
Cc1ccc(OCC(=O)Nc2ccc(S(=O)(=O)N3CCN(C)CC3)cc2)cc1,"activity change, negative = inhibition",[1],inactive
N/C(=N\OC(=O)c1ccc(Cl)cc1)c1[nH]ncc1Br,Potency,[1],"inconclusive: 25.1 µM [falling, partial curve]"
CC(NC(=O)c1cc(=O)[nH]c2ccccc12)c1ccccc1 (stereo unspecified),"activity change, negative = inhibition",[1],inactive
CCC(NC(=O)CCc1c(C)c2cc3c4c(oc3cc2oc1=O)CCCC4)C(=O)O (stereo unspecified),Potency,[1],"inconclusive: 7.94 µM [falling, partial curve]"
COc1ccc(/C=C/C(=O)NC(=S)NCc2ccccc2)cc1OC,"activity change, negative = inhibition",[1],inconclusive: 7.03%
COc1cccc(C2=NOC(C(=O)N3CCc4ccccc4C3)C2)c1 (stereo unspecified),Potency,[1],"inconclusive: 23.1 µM [falling, partial curve, poor fit]"
Cc1nc2nc(NC(=O)c3ccco3)nn2c(C)c1Cl,"activity change, negative = inhibition",[1],inconclusive: -0.237%
COc1ccc(NC(=O)CN2CCC3(O)CCCCC3C2c2cc(OC)ccc2OC)cc1 (stereo unspecified),"activity change, negative = inhibition",[1],inconclusive: -1.49%
COC(=O)c1ccc2c(=O)n(Cc3ccco3)c(SCC(=O)Nc3ccc(C)c(Cl)c3)nc2c1,"activity change, negative = inhibition",[1],inconclusive: 8.64%
CC(Sc1nc(N)cc(N)n1)C(=O)Nc1ccc(N2CCOCC2)cc1 (stereo unspecified),"activity change, negative = inhibition",[1],inconclusive: 0.202%
COc1cc2c(cc1OC)CN(CC(=O)Nc1ccc(C)cc1)CC2,"activity change, negative = inhibition",[1],inconclusive: -10.5%
COc1ccc(-c2nnc(SCC(=O)NCc3cccs3)n2C(C)C)cc1,"activity change, negative = inhibition",[1],inconclusive: 2%
COc1ccc(-c2nn(-c3ccccc3)cc2/C=C2/SC(=S)N(CCC(=O)O)C2=O)cc1,"activity change, negative = inhibition",[1],inconclusive: 13.9%
Cn1c2ccsc2c2ncn(Cc3ccccc3F)c(=O)c21,"activity change, negative = inhibition",[1],inconclusive: 2.71%
same,"activity change, negative = inhibition",at 46.1 µM (top of the series),inactive: 17.3%
Cc1cccc(C)c1Nc1c(-c2ccccn2)nc2ccccn12,"activity change, negative = inhibition",[1],inconclusive: 8.85%
COc1ccc(-n2cc(-c3ccccc3)c3c(NCCCN4CCOCC4)ncnc32)cc1,"activity change, negative = inhibition",[1],inactive
Cc1cccc(C)c1NS(=O)(=O)c1ccc(-c2cnc(C3CC3)o2)cc1,Potency,[1],"inconclusive: 1.12 µM [falling, full curve]"
COc1ccc(CN2CCNC(=O)C2CC(=O)NCCC2=CCCCC2)cc1OC (stereo unspecified),Potency,[1],"inconclusive: 25.1 µM [falling, single point]"
COc1ccc(OC)c(-c2cc(C(=O)Nc3cccc(Cl)c3)no2)c1,Potency,[1],"inconclusive: 0.355 µM [falling, partial curve, poor fit]"
O=C(O)CN1C(=O)/C(=C\c2cn(-c3ccccc3)nc2-c2ccccc2)SC1=S,"activity change, negative = inhibition",[1],inactive
O=C(NC(NC(=O)c1ccccc1)C(=O)c1ccccc1)c1ccccc1,"activity change, negative = inhibition",[1],inconclusive: -1.67%
O=C(N/N=C/c1ccccc1)c1[nH]c2ccc(Br)cc2c1-c1ccccc1,"activity change, negative = inhibition",[1],inconclusive: -20.8%
Cc1ccc(CNC(=O)C2CCC(=O)N(Cc3ccc(Cl)cc3)C2)cc1F (stereo unspecified),"activity change, negative = inhibition",[1],inconclusive: -4.35%
O=C(Nc1ccc2c(c1)OCCO2)c1ccc(Cl)c(S(=O)(=O)N2CCCCC2)c1,"activity change, negative = inhibition",[1],inconclusive: 15.2%
O=C(CCCn1c(=O)[nH]c2cc(Cl)ccc2c1=O)NCCCN1CCN(c2ccc(F)cc2)CC1,"activity change, negative = inhibition",[1],inconclusive: -3.86%
COc1cccc(/C=C2/Oc3ccccc3N(CC(=O)NCC3CCCO3)C2=O)c1 (stereo unspecified),"activity change, negative = inhibition",[1],inconclusive: 11.1%
Nc1cccc(CCc2nc3cc4ccccc4cc3[nH]2)c1,Potency,[1],"inconclusive: 29.1 µM [cytotoxic, single point]"
CN(C)S(=O)(=O)Oc1ccsc1C(=O)Nc1ccc(Cl)c(Cl)c1,Potency,[1],"inconclusive: 1.12 µM [rising, full curve, poor fit]"
Cc1cc(C(=O)NCCCN2CCCC2=O)no1,"activity change, negative = inhibition",[1],inconclusive: 11.8%
Nc1ccc(C(=O)N/N=C2\CCCc3c2[nH]c2ccccc32)cc1,Potency,[1],"inconclusive: 20 µM [falling, single point]"
Cc1cc(C)cc(NC(=O)C2CCN(c3cnccn3)CC2)c1,"activity change, negative = inhibition",[1],inconclusive: 3.65%
CN(C(=O)CC1C(=O)NCCN1Cc1cccc(F)c1F)C1CCOCC1 (stereo unspecified),"activity change, negative = inhibition",[1],inactive
COCCOC(=O)c1[nH]c2c(c1C)C(=O)CC(c1ccccc1)C2 (stereo unspecified),"activity change, negative = inhibition",[1],inconclusive: -2.17%
COc1ccc(CNC(=O)Cn2c(=O)n3nc(-c4cccc(F)c4)nc3c3ccccc32)cc1OC,"activity change, negative = inhibition",[1],inconclusive: 2.51%
c1ccc(-c2cc(-c3nnc4n3N=C(c3ccc5ccccc5c3)CS4)[nH]n2)cc1,Potency,[1],"inconclusive: 2.91 µM [falling, full curve]"
Cc1ccc(C)c(-n2nnnc2SCC(=O)Nc2c(C)n(C)n(-c3ccccc3)c2=O)c1,"activity change, negative = inhibition",[1],inconclusive: 11.3%
COc1ccc(/C=N/NC(=O)c2cc(-c3ccccc3OC(C)C)nc3ccccc23)cc1CN1CCOCC1,"activity change, negative = inhibition",[1],inconclusive: 1.01%
O=C(NNC(=O)c1cccs1)c1ccc(Cl)c([N+](=O)[O-])c1,Potency,[1],"inconclusive: 5.17 µM [falling, single point]"

# 3 entries from above, set out differently:
smiles	measurement	setting	value
COCCOC(=O)c1[nH]c2c(c1C)C(=O)CC(c1ccccc1)C2 (stereo unspecified)	activity change, negative = inhibition	[1]	inconclusive: -2.17%
COc1ccc(CNC(=O)Cn2c(=O)n3nc(-c4cccc(F)c4)nc3c3ccccc32)cc1OC	activity change, negative = inhibition	[1]	inconclusive: 2.51%
c1ccc(-c2cc(-c3nnc4n3N=C(c3ccc5ccccc5c3)CS4)[nH]n2)cc1	Potency	[1]	inconclusive: 2.91 µM [falling, full curve]
